PubChem BioAssay AID504784 – Drosophila RNAi Screening Center, 2011
The deposit covers about 17,000 reagents; below is a random part of those that have a named target and a result. 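Each column is one replicate's B-score; the combined score over replicates was not deposited, so single values may mislead.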 The numbers tell different reagents against one gene apart.

Purpose: 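Genome-wide knock-down for genes giving too much or too little stored lipid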 (primary screen)
System: Drosophila Kc167 embryonic cells
Knock-down reagent: long dsRNA against Drosophila genes, about 250 ng dsRNA per well
Timing: 4 days
Challenge: cells fed 400 µM oleic acid bound to BSA
Measured: 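Cells imaged and segmented; ratio of lipid droplet area to nuclear area, log-transformed, then normalised as a B-score over the screen; higher means more stored lipid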
Reading the numbers: droplet/nuclear area B-score: higher = more stored lipid (overstorage)

predicted target | dsRNA no. | droplet/nuclear area B-score, replicate 1 | droplet/nuclear area B-score, replicate 2 | droplet/nuclear area B-score, replicate 3
CenG1A | 1 | -0.526 | -1.09 | –
CenG1A | 2 | 0.516 | -0.39 | –
CenG1A | 3 | -1.44 | 3.58 | –
Mst98Ca | 1 | -2.7 | -0.344 | 0.0151
CG14200 | 1 | -1.57 | -0.707 | –
CG14200 | 2 | 0.549 | -1.52 | –
pHCl-2 | 1 | -1.65 | -0.0522 | –
Cpr62Ba | 1 | -0.47 | 0.9 | –
TyrRS-m | 1 | 1 | -0.23 | –
Eig71Ei | 1 | -0.359 | 0.18 | –
CG12020 | 1 | 0.566 | 1.12 | –
Nepl8 | 1 | 1.09 | -0.436 | –
DNaseII | 1 | 1.46 | -0.696 | –
wdb | 1 | -0.421 | -0.796 | –
CG17065 | 1 | -1.22 | -0.675 | –
metro | 1 | -1.72 | – | –
metro | 2 | -1.01 | 1.54 | –
CG30416 | 1 | -0.0203 | 0.101 | –
CG17190 | 1 | -3.03 | -0.267 | –
Slu7 | 1 | 1.13 | -0.236 | –
CG5953 | 1 | 0.131 | -0.137 | –
CG5953 | 2 | 4.99 | 5.73 | –
Ptp52F | 1 | -1.48 | 0.15 | –
Shc | 1 | -0.00404 | 0.489 | –
CG8745 | 1 | 0.557 | 1.71 | 0.371
CG8745 | 2 | 0.33 | -0.437 | –
CG8745 | 3 | 0.856 | -0.536 | –
HmgD | 1 | 2.87 | 1.05 | –
Sas10 | 1 | -1.16 | 0.188 | –
CG42674 | 1 | -0.547 | -0.0122 | –
CG42674 | 2 | -0.714 | 0.158 | –
CG42674 | 3 | -1.5 | 0.778 | –
CG5157 | 1 | 0.297 | -0.439 | –
pav | 1 | 1.17 | -0.838 | –
CG9083 | 1 | -1 | 0.119 | –
CG17475 | 1 | -1.9 | -1.55 | –
lola | 1 | -1.29 | -1.36 | –
lola | 2 | -0.406 | -0.195 | –
lola | 3 | -0.653 | 0.694 | –
lola | 4 | -0.0131 | 1.07 | –
lola | 5 | -1.33 | -1.46 | –
lola | 6 | 1 | 3.52 | –
lola | 7 | 0.616 | 1.18 | –
lola | 8 | -3.41 | -2.28 | –
lola | 9 | 0.695 | 0.608 | –
lola | 10 | 2.58 | 3.65 | –
lola | 11 | 0.434 | 0.48 | –
lola | 12 | 1.75 | 1.64 | –
c12.1 | 1 | -1.45 | -0.123 | -1.85
crq | 1 | 0.0302 | 0.0553 | –
CG8303 | 1 | -0.415 | -3.17 | –
CG14395 | 1 | 0.325 | 0.466 | –
tra2 | 1 | -1.02 | -0.704 | –
Nhe1 | 1 | 0.636 | 0.334 | –
Ank2 | 1 | 0.874 | 2.9 | –
Ank2 | 2 | -0.734 | 0.577 | –
Ank2 | 3 | 0.999 | 1.77 | –
Ank2 | 4 | -1.17 | 0.493 | –
Ank2 | 5 | 0.881 | 0.968 | –
Snx27 | 1 | -0.36 | 0.798 | –
Snx27 | 2 | 0.234 | 0.518 | –
Snx27 | 3 | 2.29 | 0.493 | –
Snp | 1 | -1.3 | -0.7 | –
Snp | 2 | -0.683 | -1.07 | –
CG13197 | 1 | -0.0316 | 1.73 | –
Cec2 | 1 | 0.0256 | -1.34 | –
CG6153 | 1 | 0.519 | 0.00232 | –
CG3631 | 1 | -0.135 | 5.2 | –
CG2685 | 1 | 2.74 | 0.66 | –
CG13426 | 1 | 1.19 | -0.572 | –
Tk | 1 | 1.37 | 2.95 | -1.27
Tk | 2 | -0.157 | -0.825 | –
CG2444 | 1 | 0.157 | -0.934 | 0.701
CG9632 | 1 | 1.15 | 2.33 | –
CG33160 | 1 | 0.885 | 0.552 | –
Spn31A | 1 | 0.68 | -0.136 | –
eIF2D | 1 | -1.63 | 1.05 | –
Trp1 | 1 | 1.33 | 1.35 | –
gammaTub37C | 1 | 0.841 | 0.947 | –
D1 | 1 | 0.984 | -1.08 | –
Polr3G | 1 | 1.59 | -0.765 | –
STUB1 | 1 | -1.08 | -1.5 | –
Lgr3 | 1 | -0.114 | -0.289 | –
Lgr3 | 2 | -0.304 | -0.506 | –

Reformatted: 6 of the entries above
| predicted target | dsRNA no. | droplet/nuclear area B-score, replicate 1 | droplet/nuclear area B-score, replicate 2 | droplet/nuclear area B-score, replicate 3 |
| --- | --- | --- | --- | --- |
| Tk | 2 | -0.157 | -0.825 | – |
| CG2444 | 1 | 0.157 | -0.934 | 0.701 |
| CG9632 | 1 | 1.15 | 2.33 | – |
| CG33160 | 1 | 0.885 | 0.552 | – |
| Spn31A | 1 | 0.68 | -0.136 | – |
| eIF2D | 1 | -1.63 | 1.05 | – |
